The values that follow come from publication PMC9465852, “Comparative analyses of vertebrate CPEB proteins define two subfamilies with coordinated yet distinct functions in post-transcriptional gene regulation”.

These are yes or no findings as the source states them, for the method shown. Binding seen in cells or lysates may run through a third protein. These calls come from enrichment with a bait or labelling near it, and not all partners need be listed. For part of these data: A no says only that the protein was not detected with the bait.

Experiment [1] deals with CPEB1(6A)-BirA fusion (Xenopus laevis). The experiment in a line: proximity labelling; BioID with CPEB1(6A)-BirA in X. laevis oocytes, PI; for the preys that remained also after 10 uM progesterone (MII).
The target is the same in experiment [2]. The experiment in a line: condition: only oocytes treated with 10 uM progesterone; proximity labelling; BioID with CPEB1(6A)-BirA in X. laevis oocytes stimulated with 10 uM progesterone (MII).

B1: PATL2 (protein, UniProt Q4V7K4 1-733)
chain: MNLGSEQILPEDFYLAEEGALLEEMAEEDEEIDLYNEVTFGLDQESDEEPVKLEDDHTKPIQMPEAPKEEEPEALQPVKEAKGSEKAPLHEVKIVVEPHEDHVDLSIDSGGHTMNSTMDDSELGDPAVMKAFHGKPTLESLDSAVVDSGIGSTWSELDTDYDQSGMDSGLWEASPKVSTYATGQILEDKAILRIMERAPYLPPTNLEFLGSPLQRGFMPSQRLQGPEMGAMSPKPYRPRFMRQQSPLVPRSMRPSYPFTPPRRGPSVFAPNQSPGFVSQTPFRPMSPNVSTPTRPMTPKMVRMHFGPMSPSPSFSPFFSPMGNALQRFKVPGHVTQLHPQHRRILSQRQRPQSSSRRQWESRPDPYASLMSQKEKEWVIKLQMIQLQSENPHLDDYYYQAYYENLERKLSEEEFLGERKKREPTKLVTPYIQKAETYESVVHIEGSLGQVAVSTCYSPRRAIDAVSYAMPDEAIKALGYQRLRVLKHAEKVFLMFLEVEELARKMSHIPEEEHVHFQHKQNYKVQRIYDVLKIAPCHNEEESEFLQLLQVGKGKKLVARLLPFLRSEQAREILLLVVQHLTFLIKNDSAEESLSVLYGPLKTIINGLSFTELIGVTQELTRPLPESNDLPLTLAFQNQFGISLLYCLLSHGERLLSSDLPMEPCIGDFEKWTDTVFLVAKELSHVSKSSMVEPLFLPSNLLSLFCRYLDKQTIHKLEDKMECPVIPPYTAVPS
As to B1, the binding result in experiment [1] is on record as “binds”; in experiment [2] it was “no binding”.

B2: Symplekin (SYMPK) (protein, UniProt Q7ZYV9 1-1202)
chain: MAVSMASQFFSQEEGTSEVVSTSERVVELLNMAALATNDTKITMLKQVQELIINKDPTLLDNFLDEIIAFQADKSVEVRKIVVNFIEEACKLDNELLIKLIANLHMLLKDENVNVVKKSILTMTQLYKVALQWVARSRPPSEQQESCWDLVTEMAADILLLLESDNDGMRTHAVKFVESLIVTLSPRTADSEVPKRQDGDISLEQIPPDHQFLKYNTLRDLGKQAVKELLKFMAHPAISSINLTAALGSLASIARQRPMFMAEVIQAYETLHANLPPTLAKSQVSSVRKNLKLQLLSVLRHPSSYEYQGPISTLLLDLGTSQGEITRHLPPPRDSNRKRAREDGEGGQKKSRTDIPLPDDDDDKDTMQLPTIPAPAPSTQSATDITADFVRPLLSPENVANLVLISMVYLPDSMPASFQSTYTPVESAGTDSQIRHLARLMATQMSAAGIGPGVEQSKDIPVDVVEEENIKPEGLVIKRRISALTKGQAISVLGCQSEKTKEEEEEEDDAPLAKKRPEPILPATQIRPSGVGGRKKVFRLKEVTEPLTDVQIKSLKLGAVRRILQAERSVGSSGASQMRVKVLARLVTQLDISVKAEVLSHFLNDPRMRLDLALAWLYQEYCEYQSGAGEEGYQECLIGILTGLQERPDQRDGVFTKVVLEAPLLTDSALDVLRKYCEDEGRSYLGMSTLRDLILTRPARQFQYLHLLLDLSSHEKDKIRQQSLHFIKRMYEKESLRPYIEKFALNYLQLLVHPNPPSVLFGADKDTEVAAPWTEDTVKQCLYLYLALLPQNHKLIHELASVYTEATADIKRTVLRVIETPIRGMGMNSPELLLLVENCPKGAETLVTRCLHILTDKVPPSPELVKRVRELYHKRLPDVRFLIPVLNGLDKKEVIQALPKLIKLNPIVVKEVFNRLLGTQHGEVSSSLSPLTPGDLLVALHNIDSSKCDMKSVIKATNLCFSARSVYTSEVLAVVLQQLMDTTPLPMLLMRTVIQALGMYPRLGGFIMNILTRLIYKQVWKYPKVWEGFIKCCQRTKPQSFSVLLQLPPPQLLSVLQTSPDLRDPLLAHVRAFTPHQLAHVPHSIMAILEAESRTDAGAEEAAQVEEEQETPAQDIIARRLAQEKSLKKQIEEQKGRNNQEMEEVAEVDPPAIFIAEEEEEESLKSQGKEEPQEDSSSNATTAEKSPVADEPMEEEPVEKKD
B2: the binding result in experiment [1] was “binds”.
